Data published in publication PMC11262183, “Arid5a uses disordered extensions of its core ARID domain for distinct DNA- and RNA-recognition and gene regulation”.

Tests used:
[1] = biological target: T1, Arid5a ARID (Homo sapiens) (UniProt Q03989); assay: pull-down; conditions: 1 and 5 uM protein, 25 mM Tris pH 7.5, 150 mM KCl, 3 mM MgCl2, purified recombinant protein, residues 49-152, protein details: N-terminal Twin-Strep, kept, only the motif is given
T1 sequence (looked up): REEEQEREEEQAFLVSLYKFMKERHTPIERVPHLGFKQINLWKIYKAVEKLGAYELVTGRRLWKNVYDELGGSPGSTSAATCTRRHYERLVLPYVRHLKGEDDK

[2] = biological target: T2, ARID37-183 K85A/Q86A (human) (UniProt Q03989); assay: NMR; conditions: 2-fold DNA; 20 mM Bis-Tris pH 6.5, 150 mM NaCl, 2 mM TCEP, 0.02% NaN3; NMR at 298 K; recombinant protein; residues 37-183; protein details: cloned in pET-Trx1a (TEV site)
T2 sequence (looked up): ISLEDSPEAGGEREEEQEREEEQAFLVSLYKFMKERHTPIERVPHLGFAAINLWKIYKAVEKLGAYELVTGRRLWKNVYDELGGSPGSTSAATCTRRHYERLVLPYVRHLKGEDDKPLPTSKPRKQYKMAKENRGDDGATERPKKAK

[3] = biological target: T3, ARID37-183 T125A/S126A (human) (UniProt Q03989); assay: NMR; conditions: 2-fold DNA, effect less pronounced than in core; 20 mM Bis-Tris pH 6.5, 150 mM NaCl, 2 mM TCEP, 0.02% NaN3; NMR at 298 K; recombinant protein; residues 37-183; protein details: cloned in pET-Trx1a (TEV site)
T3 sequence (looked up): T2 sequence (looked up) with A49K, A50Q, T89A, S90A

[4] = biological target: T4, ARID49-152 T125A/S126A (human) (UniProt Q03989); assay: NMR; conditions: 2-fold DNA; 20 mM Bis-Tris pH 6.5, 150 mM NaCl, 2 mM TCEP, 0.02% NaN3; NMR at 298 K; recombinant protein; residues 49-152; protein details: cloned in pET-Trx1a (TEV site)
T4 sequence (looked up): T1 sequence (looked up) with T77A, S78A

[5] = biological target: T5, Arid5a ARID37-183 (human) (UniProt Q03989); assay: EMSA; conditions: 20 mM Bis-Tris pH 6.5, 150 mM NaCl, 2 mM TCEP, 0.02% NaN3, EMSA plus 10 mM MgCl2 and 0.6 ug yeast tRNA per 20 ul, 22-24 C, recombinant protein, residues 37-183, protein details: cloned in pET-Trx1a (TEV site)
T5 sequence (looked up): T2 sequence (looked up) with A49K, A50Q

[6] = biological target: T6, Arid5b extended ARID (human) (UniProt Q14865); assay: EMSA; conditions: 20 mM Bis-Tris pH 6.5, 150 mM NaCl, 2 mM TCEP, 0.02% NaN3; EMSA plus 10 mM MgCl2 and 0.6 ug yeast tRNA per 20 ul, 22-24 C; recombinant protein; residues …; protein details: cloned in pET-Trx1a (TEV site); label: 5'-fluorescein on strand 1
T6 sequence (looked up): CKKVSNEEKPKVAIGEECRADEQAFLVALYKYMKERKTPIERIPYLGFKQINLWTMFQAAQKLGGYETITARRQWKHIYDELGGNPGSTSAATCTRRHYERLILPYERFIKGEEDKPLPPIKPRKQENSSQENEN

[7] = biological target: T7, Jarid1a extended ARID (human) (UniProt P29375); assay: EMSA; conditions: 20 mM Bis-Tris pH 6.5, 150 mM NaCl, 2 mM TCEP, 0.02% NaN3, EMSA plus 10 mM MgCl2 and 0.6 ug yeast tRNA per 20 ul, 22-24 C, recombinant protein, residues 66-198, protein details: cloned in pET-Trx1a (TEV site), label: 5'-fluorescein on strand 1
T7 sequence (looked up): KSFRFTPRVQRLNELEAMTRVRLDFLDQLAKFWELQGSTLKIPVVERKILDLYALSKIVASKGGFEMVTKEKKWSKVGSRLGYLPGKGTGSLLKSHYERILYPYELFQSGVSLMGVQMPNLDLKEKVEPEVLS

[8] = biological target: T8, Arid5a ARID49-152 (human) (UniProt Q03989); assay: NMR; conditions: 20 mM Bis-Tris pH 6.5, 150 mM NaCl, 2 mM TCEP, 0.02% NaN3, NMR at 298 K, recombinant protein, residues 49-152, protein details: cloned in pET-Trx1a (TEV site)
T8 sequence (looked up): T1 sequence (looked up)

[9] = biological target: T5, Arid5a ARID37-183 (human); assay: NMR; conditions: 20 mM Bis-Tris pH 6.5, 150 mM NaCl, 2 mM TCEP, 0.02% NaN3, NMR at 298 K, recombinant protein, residues 37-183, protein details: cloned in pET-Trx1a (TEV site)
[10] = biological target: T9, Arid5a ARID37-152 (human) (UniProt Q03989); assay: EMSA; conditions: less pronounced complex band; 20 mM Bis-Tris pH 6.5, 150 mM NaCl, 2 mM TCEP, 0.02% NaN3; EMSA plus 10 mM MgCl2 and 0.6 ug yeast tRNA per 20 ul, 22-24 C; recombinant protein; residues 37-152; protein details: cloned in pET-Trx1a (TEV site); label: 5'-fluorescein on strand 1
T9 sequence (looked up): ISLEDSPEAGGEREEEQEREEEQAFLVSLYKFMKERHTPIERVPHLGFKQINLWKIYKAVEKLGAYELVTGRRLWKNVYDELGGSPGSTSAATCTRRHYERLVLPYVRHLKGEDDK

[11] = biological target: T8, Arid5a ARID49-152 (human); assay: EMSA; conditions: less pronounced complex band; 20 mM Bis-Tris pH 6.5, 150 mM NaCl, 2 mM TCEP, 0.02% NaN3; EMSA plus 10 mM MgCl2 and 0.6 ug yeast tRNA per 20 ul, 22-24 C; recombinant protein; residues 49-152; protein details: cloned in pET-Trx1a (TEV site); label: 5'-fluorescein on strand 1
[12] = no KD could be derived, label: 5'-fluorescein on strand 1
[13] = affinity rises with RNA length, label: 5'-32P

UCCGGAU [7-mer TCCGGAT]
binding signal (RBNS z-score of enrichment R) ([1]; counted as no binding): -1.53

UGUGGAU [7-mer TGTGGAT]
binding signal (RBNS z-score of enrichment R) ([1]; counted as no binding): -1.18

GCACAATATAACG (double strand) [13merAT]
binding result [2]: binds | binding result [3]: binds more weakly | binding result [4]: binds more weakly

GCCCCGCCCGCCG (double strand) [FAM-13merGC]
binding result [5, 12]: binds more weakly | binding result [6]: binds more weakly | binding result ([7]; less AT-specific than Arid5b): binds

UGAGUCU [7-mer TGAGTCT]
binding signal (RBNS z-score of enrichment R) [1]: -0.668

CACACCGUUCUAGGUGCUG [19mer_ADE (Ox40 ADE)]
binding result ([8]; marginal interaction, up to 3.5-fold RNA): binds more weakly

CGUACCG [7-mer CGTACCG]
binding signal (RBNS z-score of enrichment R) ([1]; counted as no binding): -0.948

GGCACAGAACUUAUGUUGUUCUCUAUGGAGAACUAAAAGUAUGAGCGUUAGGACACUAUUUUAAUUAUUUUUAAUUUAUUAAUAUUUAAAUAUGUGAAGCUGAGUUAAUUUAUGUAAGUCAUAUUUAUA [Il-6 3'UTR 129 nt]
binding result ([8]; 1.2-fold RNA, moderate affinity): binds more weakly

CAUGUCU [7-mer CATGTCT]
binding signal (RBNS z-score of enrichment R) [1]: -0.006

GCACAACGTAACG (double strand) [13merAT_var3]
binding result [5, 12]: binds more weakly

UGACGAC [7-mer TGACGAC]
binding signal (RBNS z-score of enrichment R) ([1]; counted as no binding): -1.06

GGUCGUUGACAGGACACGAGUAACUCGUCUAUCUUCUGCAGGCUGCUUACGGUUUCGUCCGUGUUGCAGCCGAUCAUCAGCACAUCUAGGUUUCGUCCGGGUGUGACCGAAAGGUAAGAUGGAGAGCCUUGUCCCUGGUUUCAACGAGAA [150nt RNA]
binding result [5, 13]: binds

GCACAACACAACG (double strand) [13merAT_var5]
binding result [5, 12]: binds more weakly

CCCCUGG [7-mer CCCCTGG]
binding signal (RBNS z-score of enrichment R) [1]: -0.751

CUCAGUC [7-mer CTCAGTC]
binding signal (RBNS z-score of enrichment R) [1]: -0.579

GAATGCACTGGGCCTGTTTCC (double strand) [dsDNA_21mer]
binding result ([9]; affinity scales with length): binds

GGACACUAUUUUAAUUAUUUUUAAUUUAUUAAUAUUUAAAUAUGUGAAGCUGAGUUAAUU [60mer_Il6]
binding result ([9]; affinity scales with length): binds

GGCCUCUGUGAGGCC [15nt RNA]
binding result [5, 13]: binds more weakly

GUUAGCU [7-mer GTTAGCT]
binding signal (RBNS z-score of enrichment R) [1]: -0.407

GCGAAAG [7-mer GCGAAAG]
binding signal (RBNS z-score of enrichment R) [1]: -0.322

GCCCCGCCCGCCG (double strand) [13merGC]
binding result ([9]; fast exchange): binds more weakly | binding result ([8]; 2-fold DNA): binds more weakly

GCACAATATAACG (double strand) [FAM-13merAT]
binding result [10]: binds more weakly | binding result [11]: binds more weakly | binding result [6]: binds | binding result [7]: binds

GAATTCTAATACGACTCACTATAGCATTACTACAGGTTCGCCTGCCTGGTGGTGCGCCGGCCATGGTCCC (double strand) [dsDNA_70mer]
binding result ([9]; affinity scales with length): binds

ACGAATTCTAATACGACTCACTATAGGGACACTATTTTAATTATTTTTAATTTATTAATATTTAAATATGTGAAGCGCCGGCCATGGTCCCAGCC (double strand) [dsDNA_95mer]
binding result ([9]; affinity scales with length): binds

CGUCAAU [7-mer CGTCAAT]
binding signal (RBNS z-score of enrichment R) [1]: -0.49

ACAGGCAGG / CCUGCCUGU [RBNS-9mer dsRNA]
binding result ([8]; 2-fold RNA): binds more weakly

UCGUUGG [7-mer TCGTTGG]
binding signal (RBNS z-score of enrichment R) ([1]; counted as no binding): -2.52

GAGGGCU [7-mer GAGGGCT]
binding signal (RBNS z-score of enrichment R) ([1]; counted as no binding): -1.33

GUGUGGCUGUCACUCGGCUGCAUGCUUAGUGCACUCACGCAGUAUAAUUAAUAACUAAUUACUG [64nt RNA]
binding result [5, 13]: binds

GGCUCAG [7-mer GGCTCAG]
binding signal (RBNS z-score of enrichment R) [1]: -0.222

GGAUGUU [7-mer GGATGTT]
binding signal (RBNS z-score of enrichment R) ([1]; counted as no binding): -0.849

Changes are numbered by the printed parent chain. For part of these data: The comparison behind a weaker result is the experiment's own reference, which may not be listed here. Where a protein sequence is shown, tags need not be part of it. For part of these data: For at least one entry, the source does not settle the construct or the ends of the probe. For part of these data: At least one verdict was read from the data and is not stated in words by the source.
